Assay results published in PMC12713080.
Results are given in words; binding and its absence hold for the method and conditions named. Binding seen in cells or lysates may run through a third protein. Some binding calls cover weakened binding; strength is not graded here. For some assays here: Sequences can lack the tags named with a protein. One block for each binder: values may come before it.

Experiments:
HA‐TAK1 (human) = biological target: T1, HA‐TAK1 (human) (UniProt O43318); assay: co-IP; TAK1 wild type or copper binding-deficient TAK1, with copper (Figures S5J-L; legends not shown)
T1 sequence: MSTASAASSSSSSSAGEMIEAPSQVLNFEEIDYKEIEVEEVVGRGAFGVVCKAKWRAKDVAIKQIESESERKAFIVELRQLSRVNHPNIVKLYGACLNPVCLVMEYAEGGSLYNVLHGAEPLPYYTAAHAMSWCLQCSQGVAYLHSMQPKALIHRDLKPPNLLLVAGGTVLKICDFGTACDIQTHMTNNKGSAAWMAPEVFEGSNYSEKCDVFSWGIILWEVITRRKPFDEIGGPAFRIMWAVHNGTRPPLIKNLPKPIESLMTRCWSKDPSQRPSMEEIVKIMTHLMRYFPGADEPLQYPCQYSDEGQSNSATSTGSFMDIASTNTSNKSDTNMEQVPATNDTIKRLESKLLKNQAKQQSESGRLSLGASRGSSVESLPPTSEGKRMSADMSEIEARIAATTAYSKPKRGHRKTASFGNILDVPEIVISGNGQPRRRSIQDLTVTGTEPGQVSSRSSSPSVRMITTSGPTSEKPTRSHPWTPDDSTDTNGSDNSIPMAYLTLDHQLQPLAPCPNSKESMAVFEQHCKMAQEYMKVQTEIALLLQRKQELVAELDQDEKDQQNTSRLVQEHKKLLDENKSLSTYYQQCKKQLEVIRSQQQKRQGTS

HA‐TAK1‐2A (human) = biological target: T2, HA‐TAK1‐2A (human) (UniProt O43318); assay: as above
T2 sequence: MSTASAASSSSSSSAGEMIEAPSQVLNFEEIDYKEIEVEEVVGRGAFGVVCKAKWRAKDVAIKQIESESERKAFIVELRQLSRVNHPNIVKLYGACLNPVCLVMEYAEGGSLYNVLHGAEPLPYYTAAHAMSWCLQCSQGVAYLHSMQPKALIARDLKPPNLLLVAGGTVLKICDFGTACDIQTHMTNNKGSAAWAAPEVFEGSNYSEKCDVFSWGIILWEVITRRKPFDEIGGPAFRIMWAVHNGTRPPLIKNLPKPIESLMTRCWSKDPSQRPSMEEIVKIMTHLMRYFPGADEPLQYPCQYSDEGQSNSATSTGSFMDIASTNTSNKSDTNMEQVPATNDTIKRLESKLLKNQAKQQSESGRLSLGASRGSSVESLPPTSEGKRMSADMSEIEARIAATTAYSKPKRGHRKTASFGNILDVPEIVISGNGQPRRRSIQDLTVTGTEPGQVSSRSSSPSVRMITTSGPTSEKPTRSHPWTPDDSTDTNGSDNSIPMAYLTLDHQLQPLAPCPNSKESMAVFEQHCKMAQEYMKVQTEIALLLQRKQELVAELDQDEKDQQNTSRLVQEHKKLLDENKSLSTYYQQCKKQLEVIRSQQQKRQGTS

[1] = biological target: T3, transforming growth factor β‐activated kinase 1 (TAK1), endogenous (human (endogenous in MDA-MB-231)) (UniProt O43318); assay: co-IP; endogenous proteins; MDA-MB-231 cells in serum-free medium with CuSO4 (50 µM) or/and TTM (50 µM) for 14 h; lysate with anti-TAK1 antibody and protein A/G agarose 12 h at 4 °C; washed 4 times with NETN buffer (20 mM Tris-HCl pH 8.0, 150 mM NaCl, 0.5% NP-40, 1 mM EDTA)
T3 sequence: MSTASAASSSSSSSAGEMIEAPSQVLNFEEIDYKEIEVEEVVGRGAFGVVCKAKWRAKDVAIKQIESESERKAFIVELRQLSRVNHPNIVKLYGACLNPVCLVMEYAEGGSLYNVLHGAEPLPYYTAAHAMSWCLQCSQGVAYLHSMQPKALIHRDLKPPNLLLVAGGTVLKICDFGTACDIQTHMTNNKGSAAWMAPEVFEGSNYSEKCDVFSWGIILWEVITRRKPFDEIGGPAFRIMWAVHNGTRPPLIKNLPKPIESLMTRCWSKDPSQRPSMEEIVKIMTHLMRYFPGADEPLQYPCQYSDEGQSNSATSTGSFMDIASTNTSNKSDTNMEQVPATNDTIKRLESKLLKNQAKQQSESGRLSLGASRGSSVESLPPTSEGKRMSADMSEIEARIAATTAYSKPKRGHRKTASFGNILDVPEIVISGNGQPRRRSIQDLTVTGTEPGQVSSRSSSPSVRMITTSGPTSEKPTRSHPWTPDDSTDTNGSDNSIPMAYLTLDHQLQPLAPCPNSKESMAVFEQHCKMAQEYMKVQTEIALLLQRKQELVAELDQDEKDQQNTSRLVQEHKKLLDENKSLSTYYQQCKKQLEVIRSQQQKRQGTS

[2] = biological target: T4, transforming growth factor β‐activated kinase 1 (TAK1), endogenous (human (endogenous in MDA-MB-231)), O43318; assay: as above; details: remark: other sources report otherwise
T4 chain: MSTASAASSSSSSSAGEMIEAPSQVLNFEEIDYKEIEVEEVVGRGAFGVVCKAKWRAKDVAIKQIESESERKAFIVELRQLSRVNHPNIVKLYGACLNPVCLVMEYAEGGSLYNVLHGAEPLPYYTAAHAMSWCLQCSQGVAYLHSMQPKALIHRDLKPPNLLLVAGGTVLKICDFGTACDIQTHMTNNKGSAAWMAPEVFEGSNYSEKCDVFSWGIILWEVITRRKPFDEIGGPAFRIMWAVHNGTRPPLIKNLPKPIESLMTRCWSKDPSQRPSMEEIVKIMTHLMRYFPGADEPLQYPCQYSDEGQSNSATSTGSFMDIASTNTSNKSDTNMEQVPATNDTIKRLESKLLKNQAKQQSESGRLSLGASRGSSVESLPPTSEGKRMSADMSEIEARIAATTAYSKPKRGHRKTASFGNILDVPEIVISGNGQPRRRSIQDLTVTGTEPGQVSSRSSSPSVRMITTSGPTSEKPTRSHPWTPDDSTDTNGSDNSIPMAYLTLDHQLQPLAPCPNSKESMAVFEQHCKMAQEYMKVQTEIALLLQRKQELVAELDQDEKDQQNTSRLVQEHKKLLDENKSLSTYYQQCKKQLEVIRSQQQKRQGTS

HA‐TAK1 (human), O43318 = biological target: T5, HA‐TAK1 (human), O43318; assay: co-IP; TAK1 wild type or copper binding-deficient TAK1, with copper (Figures S5J-L; legends not shown); details: remark: other sources report otherwise
T5 chain: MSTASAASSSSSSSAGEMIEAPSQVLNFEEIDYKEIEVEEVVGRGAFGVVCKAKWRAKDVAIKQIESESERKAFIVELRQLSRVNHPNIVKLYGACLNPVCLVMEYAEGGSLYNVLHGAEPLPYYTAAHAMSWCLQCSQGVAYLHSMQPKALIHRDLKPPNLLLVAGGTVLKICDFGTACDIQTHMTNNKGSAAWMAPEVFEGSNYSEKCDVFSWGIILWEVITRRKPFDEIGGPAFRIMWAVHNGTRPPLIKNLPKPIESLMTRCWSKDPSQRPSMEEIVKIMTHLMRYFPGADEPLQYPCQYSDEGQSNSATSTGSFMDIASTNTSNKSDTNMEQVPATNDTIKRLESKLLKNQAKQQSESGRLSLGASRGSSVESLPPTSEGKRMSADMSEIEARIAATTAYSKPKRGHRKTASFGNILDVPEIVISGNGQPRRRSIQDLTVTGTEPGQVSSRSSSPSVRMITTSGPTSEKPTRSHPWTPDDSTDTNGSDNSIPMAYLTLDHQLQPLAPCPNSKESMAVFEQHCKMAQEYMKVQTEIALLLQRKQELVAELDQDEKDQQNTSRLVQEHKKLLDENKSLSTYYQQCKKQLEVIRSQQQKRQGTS

binding (HA‐TAK1 (human)): binds
binding (HA‐TAK1‐2A (human)): binds
binding [1]: binds
B1: TAB1 (protein, UniProt Q15750 1-504)
chain: MAAQRRSLLQSEQQPSWTDDLPLCHLSGVGSASNRSYSADGKGTESHPPEDSWLKFRSENNCFLYGVFNGYDGNRVTNFVAQRLSAELLLGQLNAEHAEADVRRVLLQAFDVVERSFLESIDDALAEKASLQSQLPEGVPQHQLPPQYQKILERLKTLEREISGGAMAVVAVLLNNKLYVANVGTNRALLCKSTVDGLQVTQLNVDHTTENEDELFRLSQLGLDAGKIKQVGIICGQESTRRIGDYKVKYGYTDIDLLSAAKSKPIIAEPEIHGAQPLDGVTGFLVLMSEGLYKALEAAHGPGQANQEIAAMIDTEFAKQTSLDAVAQAVVDRVKRIHSDTFASGGERARFCPRHEDMTLLVRNFGYPLGEMSQPTPSPAPAAGGRVYPVSVPYSSAQSTSKTSVTLSLVMPSQGQMVNGAHSASTLDEATPTLTNQSPTLTLQSTNTHTQSSSSSSDGGLFRSRPAHSLPPGEDGRVEPYVDFAEFYRLWSVDHGEQSVVTAP

binding [2]: binds
B2: IκB kinase β (IKKβ), endogenous, O14920 1-756 (protein)
chain: MSWSPSLTTQTCGAWEMKERLGTGGFGNVIRWHNQETGEQIAIKQCRQELSPRNRERWCLEIQIMRRLTHPNVVAARDVPEGMQNLAPNDLPLLAMEYCQGGDLRKYLNQFENCCGLREGAILTLLSDIASALRYLHENRIIHRDLKPENIVLQQGEQRLIHKIIDLGYAKELDQGSLCTSFVGTLQYLAPELLEQQKYTVTVDYWSFGTLAFECITGFRPFLPNWQPVQWHSKVRQKSEVDIVVSEDLNGTVKFSSSLPYPNNLNSVLAERLEKWLQLMLMWHPRQRGTDPTYGPNGCFKALDDILNLKLVHILNMVTGTIHTYPVTEDESLQSLKARIQQDTGIPEEDQELLQEAGLALIPDKPATQCISDGKLNEGHTLDMDLVFLFDNSKITYETQISPRPQPESVSCILQEPKRNLAFFQLRKVWGQVWHSIQTLKEDCNRLQQGQRAAMMNLLRNNSCLSKMKNSMASMSQQLKAKLDFFKTSIQIDLEKYSEQTEFGITSDKLLLAWREMEQAVELCGRENEVKLLVERMMALQTDIVDLQRSPMGRKQGGTLDDLEEQARELYRRLREKPRDQRTEGDSQEMVRLLLQAIQSFEKKVRVIYTQLSKTVVCKQKALELLPKVEEVVSLMNEDEKTVVRLQEKRQKELWNLLKIACSKVRGPVSGSPDSMNASRLSQPGQLMSQPSTASNSLPEPAKKSEELVAEAHNLCTLLENAIQDTVREQDQSFTALDWSWLQTEEEEHSCLEQAS

binding (HA‐TAK1 (human), O43318): binds
B3: IKKβ (construct of the supplementary figures not shown), O14920 1-756 (protein)
chain: MSWSPSLTTQTCGAWEMKERLGTGGFGNVIRWHNQETGEQIAIKQCRQELSPRNRERWCLEIQIMRRLTHPNVVAARDVPEGMQNLAPNDLPLLAMEYCQGGDLRKYLNQFENCCGLREGAILTLLSDIASALRYLHENRIIHRDLKPENIVLQQGEQRLIHKIIDLGYAKELDQGSLCTSFVGTLQYLAPELLEQQKYTVTVDYWSFGTLAFECITGFRPFLPNWQPVQWHSKVRQKSEVDIVVSEDLNGTVKFSSSLPYPNNLNSVLAERLEKWLQLMLMWHPRQRGTDPTYGPNGCFKALDDILNLKLVHILNMVTGTIHTYPVTEDESLQSLKARIQQDTGIPEEDQELLQEAGLALIPDKPATQCISDGKLNEGHTLDMDLVFLFDNSKITYETQISPRPQPESVSCILQEPKRNLAFFQLRKVWGQVWHSIQTLKEDCNRLQQGQRAAMMNLLRNNSCLSKMKNSMASMSQQLKAKLDFFKTSIQIDLEKYSEQTEFGITSDKLLLAWREMEQAVELCGRENEVKLLVERMMALQTDIVDLQRSPMGRKQGGTLDDLEEQARELYRRLREKPRDQRTEGDSQEMVRLLLQAIQSFEKKVRVIYTQLSKTVVCKQKALELLPKVEEVVSLMNEDEKTVVRLQEKRQKELWNLLKIACSKVRGPVSGSPDSMNASRLSQPGQLMSQPSTASNSLPEPAKKSEELVAEAHNLCTLLENAIQDTVREQDQSFTALDWSWLQTEEEEHSCLEQAS
